T/C and survivor count data for three compounds are collected here from PubChem BioAssay AID248 (DTP/NCI, 2004).

Each structure is given as a SMILES string. The list is a part of this screen's results and no random one: it gathers tests that were run many times, whatever their T/C, doses with no T/C, and many T/C values between a quarter and a half above the control. Further doses and runs are listed elsewhere. T/C gives the treated animals as a percentage of the vehicle group. Some entries give survivors of the animals treated and no T/C: the source files T/C as zero there, which appears to mark a toxic dose or a test without result, not a measured value. Some doses without a T/C left all or most animals alive at the check, yet need not have been tolerated: the source hardly ever lists a survival T/C far under the control, and the zero likely stands for such cases as well. Survivors were counted at the toxicity check, usually on the fifth day, unless a day is given; later deaths do not show. Schedules are NCI's codes, taken here to give the interval after Q, in days (D) or hours (H), and the number of doses after X. Where survival is the endpoint, the PubChem record calls one and a half times the control and up active, and a quarter to a half above the control has no call in these data; cut-offs in other NCI protocols can differ. Some doses were run more than once; their values stand side by side, smallest first. Some T/C values carry the count of animals alive at the toxicity check (mostly the fifth day); without a count, all were alive then.

For the test, the system named is L1210 leukemia ip in BDF1 mice, survival T/C. In words: NCI In Vivo Anticancer Drug Screen. Data for tumor model L1210 Leukemia (intraperitoneal) in B6D2F1 (BDF1) mice. The conditions noted are these: higher T/C = longer survival.

On to `COc1cc2cc3c4cc(OC)c(OC)cc4cc[n+]3c(C)c2cc1OC`, for which the T/C was 140 % of control (T/C endpoint: mean survival time, dose: 25.0 mg/kg/injection, schedule: Q01DX009 (ip), vehicle: water); 132 % of control [9 of 10 alive] (T/C endpoint: mean survival time, dose: 25.0 mg/kg/injection, schedule: Q04DX003 (ip), vehicle: water); 132 % of control [8 of 10 alive] (T/C endpoint: mean survival time, dose: 32.0 mg/kg/injection, schedule: Q03HX016 (ip), vehicle: saline); 128 and 131 % of control (T/C endpoint: mean survival time, dose: 50.0 mg/kg/injection, schedule: Q01DX009 (ip), vehicle: saline); 125 % of control (T/C endpoint: mean survival time, dose: 50.0 mg/kg/injection, schedule: Q01DX009 (ip), vehicle: water); 129 % of control (T/C endpoint: mean survival time, dose: 50.0 mg/kg/injection, schedule: Q04DX003 (ip), vehicle: water). The T/C is 127 % of control (T/C endpoint: mean survival time, dose: 64.0 mg/kg/injection, schedule: Q03HX016 (ip), vehicle: saline); 133 % of control [9 of 10 alive] (T/C endpoint: mean survival time, dose: 64.0 mg/kg/injection, schedule: Q03HX024 (ip), vehicle: saline); 142 % of control (T/C endpoint: mean survival time, dose: 100.0 mg/kg/injection, schedule: Q01DX001 (ip), vehicle: water); 128 % of control [9 of 10 alive] (T/C endpoint: mean survival time, dose: 100.0 mg/kg/injection, schedule: Q01DX009 (ip), vehicle: water); 126 % of control (T/C endpoint: mean survival time, dose: 100.0 mg/kg/injection, schedule: Q04DX002 (ip), vehicle: saline); 134 % of control (T/C endpoint: mean survival time, dose: 100.0 mg/kg/injection, schedule: Q04DX003 (ip), vehicle: water). Moreover, the T/C runs as follows: (T/C endpoint: mean survival time, dose: 128.0 mg/kg/injection, schedule: Q03HX024 (ip), vehicle: saline) 129 % of control [9 of 10 alive]; (T/C endpoint: mean survival time, dose: 200.0 mg/kg/injection, schedule: Q01DX001 (ip), vehicle: water) 127 % of control; (T/C endpoint: mean survival time, dose: 200.0 mg/kg/injection, schedule: Q01DX009 (ip), vehicle: saline) 138 % of control [5 of 6 alive]; (T/C endpoint: mean survival time, dose: 200.0 mg/kg/injection, schedule: Q01DX009 (ip), vehicle: water) 132 % of control; (T/C endpoint: mean survival time, dose: 200.0 mg/kg/injection, schedule: Q04DX002 (ip), vehicle: saline) 126 % of control; (T/C endpoint: mean survival time, dose: 200.0 mg/kg/injection, schedule: Q04DX003 (ip), vehicle: saline) 130 % of control. The T/C (T/C endpoint: mean survival time, dose: 200.0 mg/kg/injection, schedule: Q04DX003 (ip), vehicle: water) was 130 % of control; the T/C (T/C endpoint: mean survival time, dose: 256.0 mg/kg/injection, schedule: Q01DX009 (ip), vehicle: saline) is 128 % of control; the T/C (T/C endpoint: mean survival time, dose: 256.0 mg/kg/injection, schedule: Q04DX003 (ip), vehicle: saline) is 128 % of control; the T/C (T/C endpoint: mean survival time, dose: 400.0 mg/kg/injection, schedule: Q01DX001 (ip), vehicle: water) was 137 % of control; the T/C (T/C endpoint: mean survival time, dose: 400.0 mg/kg/injection, schedule: Q01DX009 (ip), vehicle: saline) was 131 % of control; the T/C (T/C endpoint: mean survival time, dose: 400.0 mg/kg/injection, schedule: Q04DX003 (ip), vehicle: water) is 131 % of control. Moreover, the T/C runs as follows: (T/C endpoint: mean survival time, dose: 512.0 mg/kg/injection, schedule: Q01DX009 (ip), vehicle: saline) 134 % of control [7 of 10 alive]; (T/C endpoint: mean survival time, dose: 512.0 mg/kg/injection, schedule: Q04DX003 (ip), vehicle: saline) 134 % of control; (T/C endpoint: mean survival time, dose: 1024.0 mg/kg/injection, schedule: Q01DX001 (ip), vehicle: saline) 140 % of control; (T/C endpoint: mean survival time, dose: 1024.0 mg/kg/injection, schedule: Q08DX002 (ip), vehicle: saline) 126 % of control [9 of 10 alive]; (T/C endpoint: median survival time, dose: 8.0 mg/kg/injection, schedule: Q03HX008 (ip), vehicle: saline) 127 % of control; (T/C endpoint: median survival time, dose: 8.0 mg/kg/injection, schedule: Q03HX024 (ip), vehicle: saline) 133 % of control. Besides, the T/C reads like this: (T/C endpoint: median survival time, dose: 32.0 mg/kg/injection, schedule: Q03HX008 (ip), vehicle: saline) 133 % of control; (T/C endpoint: median survival time, dose: 32.0 mg/kg/injection, schedule: Q03HX024 (ip), vehicle: saline) 133 % of control; (T/C endpoint: median survival time, dose: 64.0 mg/kg/injection, schedule: Q03HX024 (ip), vehicle: saline) 133 % of control; (T/C endpoint: median survival time, dose: 100.0 mg/kg/injection, schedule: Q01DX009 (ip), vehicle: saline, evaluated on day 7) 100 and 103 % of control; (T/C endpoint: median survival time, dose: 100.0 mg/kg/injection, schedule: Q01DX009 (ip), vehicle: saline, evaluated on day 43) 100 % of control; (T/C endpoint: median survival time, dose: 100.0 mg/kg/injection, schedule: Q01DX009 (ip), vehicle: saline, evaluated on day 44) 100 % of control [7 of 8 alive]. Also, the T/C by setting is: (T/C endpoint: median survival time, dose: 128.0 mg/kg/injection, schedule: Q03HX008 (ip), vehicle: saline) 133 % of control [7 of 8 alive]; (T/C endpoint: median survival time, dose: 128.0 mg/kg/injection, schedule: Q03HX024 (ip), vehicle: saline) 138 % of control; (T/C endpoint: median survival time, dose: 200.0 mg/kg/injection, schedule: Q01DX009 (ip), vehicle: saline, evaluated on day 7) 102 and 103 % of control; (T/C endpoint: median survival time, dose: 200.0 mg/kg/injection, schedule: Q01DX009 (ip), vehicle: saline, evaluated on day 43) 100 % of control; (T/C endpoint: median survival time, dose: 200.0 mg/kg/injection, schedule: Q01DX009 (ip), vehicle: saline, evaluated on day 44) 100 % of control; (T/C endpoint: median survival time, dose: 250.0 mg/kg/injection, schedule: Q01DX009 (ip), vehicle: saline, evaluated on day 5) 129 % of control. Also, the T/C was 125 % of control (T/C endpoint: median survival time, dose: 250.0 mg/kg/injection, schedule: Q01DX009 (ip), vehicle: saline, evaluated on day 30); 127 % of control (T/C endpoint: median survival time, dose: 256.0 mg/kg/injection, schedule: Q01DX001 (ip), vehicle: saline); 133 % of control (T/C endpoint: median survival time, dose: 256.0 mg/kg/injection, schedule: Q01DX009 (ip), vehicle: saline); 127 % of control (T/C endpoint: median survival time, dose: 256.0 mg/kg/injection, schedule: Q04DX003 (ip), vehicle: saline); 101 and 103 % of control (T/C endpoint: median survival time, dose: 400.0 mg/kg/injection, schedule: Q01DX009 (ip), vehicle: saline, evaluated on day 7); 100 % of control (T/C endpoint: median survival time, dose: 400.0 mg/kg/injection, schedule: Q01DX009 (ip), vehicle: saline, evaluated on day 43). Besides, the T/C (T/C endpoint: median survival time, dose: 400.0 mg/kg/injection, schedule: Q01DX009 (ip), vehicle: saline, evaluated on day 44) is 100 % of control; the T/C (T/C endpoint: median survival time, dose: 500.0 mg/kg/injection, schedule: Q01DX009 (ip), vehicle: saline, evaluated on day 5) was 127 % of control; the T/C (T/C endpoint: median survival time, dose: 500.0 mg/kg/injection, schedule: Q01DX009 (ip), vehicle: saline, evaluated on day 30) was 125 % of control; the T/C (T/C endpoint: median survival time, dose: 512.0 mg/kg/injection, schedule: Q01DX009 (ip), vehicle: saline) is 144 % of control; the T/C (T/C endpoint: median survival time, dose: 512.0 mg/kg/injection, schedule: Q08DX002 (ip), vehicle: saline) was 127 % of control; the T/C (T/C endpoint: median survival time, dose: 800.0 mg/kg/injection, schedule: Q01DX009 (ip), vehicle: saline, evaluated on day 7) was 94 and 101 % of control. Moreover, the T/C (T/C endpoint: median survival time, dose: 800.0 mg/kg/injection, schedule: Q01DX009 (ip), vehicle: saline, evaluated on day 43) was 100 % of control; the T/C (T/C endpoint: median survival time, dose: 800.0 mg/kg/injection, schedule: Q01DX009 (ip), vehicle: saline, evaluated on day 44) was 90 % of control; the T/C (T/C endpoint: median survival time, dose: 1024.0 mg/kg/injection, schedule: Q01DX001 (ip), vehicle: saline) was 133 % of control; the T/C (T/C endpoint: median survival time, dose: 1024.0 mg/kg/injection, schedule: Q04DX003 (ip), vehicle: saline) was 127 % of control. Also, the survivor count is, setting by setting: (T/C endpoint: mean survival time, dose: 128.0 mg/kg/injection, schedule: Q03HX016 (ip), vehicle: saline) 5 of 10; (T/C endpoint: mean survival time, dose: 256.0 mg/kg/injection, schedule: Q03HX008 (ip), vehicle: saline) 3 of 10; (T/C endpoint: mean survival time, dose: 256.0 mg/kg/injection, schedule: Q03HX016 (ip), vehicle: saline) 2 of 10; (T/C endpoint: mean survival time, dose: 256.0 mg/kg/injection, schedule: Q03HX024 (ip), vehicle: saline) 7 of 10; (T/C endpoint: mean survival time, dose: 1024.0 mg/kg/injection, schedule: Q01DX009 (ip), vehicle: saline) 6 of 10.

Turning to `CCCCN(C)N=Nc1c[nH]c(=O)[nH]c1=O`, the survivor count is 0 of 6 (T/C endpoint: mean survival time, dose: 150.0 mg/kg/injection, schedule: Q01DX001 (ip), vehicle: other) and 0 of 6 (T/C endpoint: mean survival time, dose: 300.0 mg/kg/injection, schedule: Q01DX001 (ip), vehicle: other).

On to `COCCCNc1ncnc2[nH]ncc12`, for which the survivor count (T/C endpoint: mean survival time, dose: 400.0 mg/kg/injection, schedule: Q04DX003 (ip), vehicle: saline) is reported as 3 of 6.
